Reference: PMC6600469, “Synthesis and Biological Evaluation of NH2-Sulfonyl Oseltamivir Analogues as Influenza Neuraminidase Inhibitors” (Molecules, 2019)

Assay: Metabolic stability in human liver microsomes in vitro
Conditions: human liver microsomes 0.5 mg/mL, 37 °C, 60 min incubation

For `CCCNCC(O)COc1ccccc1C(=O)CCc1ccccc1` (stereo not shown) [Propafenone, propafenone], the “Remaining (T = 60 min)” value was 0.1%.
